No constants are given. Whether binding was seen depends on the method and setting. In cells and extracts the contact can be indirect. These calls come from enrichment with a bait or labelling near it, and not all partners need be listed.
Legend:
[1] = target: mEGFP-iso6 (FMRP nuclear isoform iso6 fused to GFP) (human) (UniProt Q06787); assay: affinity purification with mass spectrometry; first screen (mild stringency): GFP-Trap magnetic agarose on whole-cell lysate of U2OS stably expressing GFP-iso6, lysate treated with turbonuclease, 2 h at 4 C; LC-MS/MS; SAINTexpress against 2 GFP-free U2OS controls, <1% FDR and fold change >1.5
[2] = target: mEGFP-iso6 (FMRP nuclear isoform iso6 fused to GFP) (human) (UniProt Q06787); assay: affinity purification with mass spectrometry; stringent conditions: GFP-Trap on whole-cell lysate of U2OS stably expressing GFP-iso6 or GFP-iso1, half the number of cells of the first screen, 6 GFP-free U2OS controls, <=1% FDR; cells mock-treated or treated with aphidicolin (APH) for 24 h

Amino acid sequences for entries named in this document (tags omitted).
UniProt Q13200: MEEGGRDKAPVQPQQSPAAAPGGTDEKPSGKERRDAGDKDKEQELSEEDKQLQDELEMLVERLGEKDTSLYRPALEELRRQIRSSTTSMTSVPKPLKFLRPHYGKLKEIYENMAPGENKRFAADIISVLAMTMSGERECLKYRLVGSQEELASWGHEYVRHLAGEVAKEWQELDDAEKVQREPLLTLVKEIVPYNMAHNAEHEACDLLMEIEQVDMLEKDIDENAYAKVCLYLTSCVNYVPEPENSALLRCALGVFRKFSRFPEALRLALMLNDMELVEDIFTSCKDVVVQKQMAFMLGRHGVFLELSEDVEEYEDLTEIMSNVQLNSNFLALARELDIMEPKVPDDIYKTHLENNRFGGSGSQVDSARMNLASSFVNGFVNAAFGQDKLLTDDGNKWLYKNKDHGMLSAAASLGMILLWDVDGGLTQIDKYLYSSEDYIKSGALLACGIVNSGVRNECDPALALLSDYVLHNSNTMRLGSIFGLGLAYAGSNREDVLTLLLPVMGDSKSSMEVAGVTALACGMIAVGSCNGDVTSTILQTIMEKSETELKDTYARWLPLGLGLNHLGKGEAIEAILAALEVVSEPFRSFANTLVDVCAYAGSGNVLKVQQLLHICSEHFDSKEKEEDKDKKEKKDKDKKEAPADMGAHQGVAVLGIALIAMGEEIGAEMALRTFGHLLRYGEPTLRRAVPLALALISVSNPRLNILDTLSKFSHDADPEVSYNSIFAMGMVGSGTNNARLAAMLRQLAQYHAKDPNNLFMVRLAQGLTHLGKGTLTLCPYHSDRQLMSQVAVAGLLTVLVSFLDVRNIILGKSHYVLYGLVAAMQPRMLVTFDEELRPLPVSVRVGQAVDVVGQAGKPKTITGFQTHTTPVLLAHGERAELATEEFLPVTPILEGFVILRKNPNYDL
UniProt Q15008: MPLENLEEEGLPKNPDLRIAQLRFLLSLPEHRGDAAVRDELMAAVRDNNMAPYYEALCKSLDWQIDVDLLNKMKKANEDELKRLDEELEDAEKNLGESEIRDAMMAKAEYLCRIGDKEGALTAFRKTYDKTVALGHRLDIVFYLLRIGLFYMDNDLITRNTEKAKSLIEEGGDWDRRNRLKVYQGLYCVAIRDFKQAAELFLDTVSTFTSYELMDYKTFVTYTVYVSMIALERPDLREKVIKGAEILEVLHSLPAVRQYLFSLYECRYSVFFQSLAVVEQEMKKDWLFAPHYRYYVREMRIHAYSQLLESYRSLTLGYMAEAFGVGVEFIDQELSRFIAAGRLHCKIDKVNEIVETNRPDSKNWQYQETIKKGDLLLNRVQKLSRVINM

Molecule	binding [1]	binding [2]
AURKB (from UniProt Q96GD4 1-344)	binds	binds
TRMT1L (protein, UniProt Q7Z2T5 1-733) MENMAEEELLPLEKEEVEVAQVQVPTPARDSAGVPAPAPDSALDSAPTPASAPAPAPALAQAPALSPSLASAPEEAKSKRHISIQRQLADLENLAFVTDGNFDSASSLNSDNLDAGNRQACPLCPKEKFRACNSHKLRRHLQNLHWKVSVEFEGYRMCICHLPCRPVKPNIIGEQITSKMGAHYHCIICSATITRRTDMLGHVRRHMNKGETKSSYIAASTAKPPKEILKEADTDVQVCPNYSIPQKTDSYFNPKMKLNRQLIFCTLAALAEERKPLECLDAFGATGIMGLQWAKHLGNAVKVTINDLNENSVTLIQENCHLNKLKVVVDSKEKEKSDDILEEGEKNLGNIKVTKMDANVLMHLRSFDFIHLDPFGTSVNYLDSAFRNIRNLGIVSVTSTDISSLYAKAQHVARRHYGCNIVRTEYYKELAARIVVAAVARAAARCNKGIEVLFAVALEHFVLVVVRVLRGPTSADETAKKIQYLIHCQWCEERIFQKDGNMVEENPYRQLPCNCHGSMPGKTAIELGPLWSSSLFNTGFLKRMLFESLHHGLDDIQTLIKTLIFESECTPQSQFSIHASSNVNKQEENGVFIKTTDDTTTDNYIAQGKRKSNEMITNLGKKQKTDVSTEHPPFYYNIHRHSIKGMNMPKLKKFLCYLSQAGFRVSRTHFDPMGVRTDAPLMQFKSILLKYSTPTYTGGQSESHVQSASEDTVTERVEMSVNDKAEASGCRRW	binds	binds
SRSF7 (protein, UniProt Q16629 1-238) MSRYGRYGGETKVYVGNLGTGAGKGELERAFSYYGPLRTVWIARNPPGFAFVEFEDPRDAEDAVRGLDGKVICGSRVRVELSTGMPRRSRFDRPPARRPFDPNDRCYECGEKGHYAYDCHRYSRRRRSRSRSRSHSRSRGRRYSRSRSRSRGRRSRSASPRRSRSISLRRSRSASLRRSRSGSIKGSRYFQSPSRSRSRSRSISRPRSSRSKSRSPSPKRSRSPSGSPRRSASPERMD	binds	–
PRPF3 (protein, UniProt O43395 1-683) MALSKRELDELKPWIEKTVKRVLGFSEPTVVTAALNCVGKGMDKKKAADHLKPFLDDSTLRFVDKLFEAVEEGRSSRHSKSSSDRSRKRELKEVFGDDSEISKESSGVKKRRIPRFEEVEEEPEVIPGPPSESPGMLTKLQIKQMMEAATRQIEERKKQLSFISPPTPQPKTPSSSQPERLPIGNTIQPSQAATFMNDAIEKARKAAELQARIQAQLALKPGLIGNANMVGLANLHAMGIAPPKVELKDQTKPTPLILDEQGRTVDATGKEIELTHRMPTLKANIRAVKREQFKQQLKEKPSEDMESNTFFDPRVSIAPSQRQRRTFKFHDKGKFEKIAQRLRTKAQLEKLQAEISQAARKTGIHTSTRLALIAPKKELKEGDIPEIEWWDSYIIPNGFDLTEENPKREDYFGITNLVEHPAQLNPPVDNDTPVTLGVYLTKKEQKKLRRQTRREAQKELQEKVRLGLMPPPEPKVRISNLMRVLGTEAVQDPTKVEAHVRAQMAKRQKAHEEANAARKLTAEQRKVKKIKKLKEDISQGVHISVYRVRNLSNPAKKFKIEANAGQLYLTGVVVLHKDVNVVVVEGGPKAQKKFKRLMLHRIKWDEQTSNTKGDDDEESDEEAVKKTNKCVLVWEGTAKDRSFGEMKFKQCPTENMAREHFKKHGAEHYWDLALSESVLESTD	binds	–
PRPF6 (protein, UniProt O94906 1-941) MNKKKKPFLGMPAPLGYVPGLGRGATGFTTRSDIGPARDANDPVDDRHAPPGKRTVGDQMKKNQAADDDDEDLNDTNYDEFNGYAGSLFSSGPYEKDDEEADAIYAALDKRMDERRKERREQREKEEIEKYRMERPKIQQQFSDLKRKLAEVTEEEWLSIPEVGDARNKRQRNPRYEKLTPVPDSFFAKHLQTGENHTSVDPRQTQFGGLNTPYPGGLNTPYPGGMTPGLMTPGTGELDMRKIGQARNTLMDMRLSQVSDSVSGQTVVDPKGYLTDLNSMIPTHGGDINDIKKARLLLKSVRETNPHHPPAWIASARLEEVTGKLQVARNLIMKGTEMCPKSEDVWLEAARLQPGDTAKAVVAQAVRHLPQSVRIYIRAAELETDIRAKKRVLRKALEHVPNSVRLWKAAVELEEPEDARIMLSRAVECCPTSVELWLALARLETYENARKVLNKARENIPTDRHIWITAAKLEEANGNTQMVEKIIDRAITSLRANGVEINREQWIQDAEECDRAGSVATCQAVMRAVIGIGIEEEDRKHTWMEDADSCVAHNALECARAIYAYALQVFPSKKSVWLRAAYFEKNHGTRESLEALLQRAVAHCPKAEVLWLMGAKSKWLAGDVPAARSILALAFQANPNSEEIWLAAVKLESENDEYERARRLLAKARSSAPTARVFMKSVKLEWVQDNIRAAQDLCEEALRHYEDFPKLWMMKGQIEEQKEMMEKAREAYNQGLKKCPHSTPLWLLLSRLEEKIGQLTRARAILEKSRLKNPKNPGLWLESVRLEYRAGLKNIANTLMAKALQECPNSGILWSEAIFLEARPQRRTKSVDALKKCEHDPHVLLAVAKLFWSQRKITKAREWFHRTVKIDSDLGDAWAFFYKFELQHGTEEQQEEVRKRCESAEPRHGELWCAVSKDIANWQKKIGDILRLVAGRIKNTF	binds	–

The remaining lines, values ahead:

binding [1]	binding [2]	Molecule
binds	binds	PSMD2 (from UniProt Q13200 1-908)
binds	binds	PSMD6 (from UniProt Q15008 1-389)
binds	–	UTP14a (protein, UniProt Q9BVJ6 1-771) MTANRLAESLLALSQQEELADLPKDYLLSESEDEGDNDGERKHQKLLEAISSLDGKNRRKLAERSEASLKVSEFNVSSEGSGEKLVLADLLEPVKTSSSLATVKKQLSRVKSKKTVELPLNKEEIERIHREVAFNKTAQVLSKWDPVVLKNRQAEQLVFPLEKEEPAIAPIEHVLSGWKARTPLEQEIFNLLHKNKQPVTDPLLTPVEKASLRAMSLEEAKMRRAELQRARALQSYYEAKARREKKIKSKKYHKVVKKGKAKKALKEFEQLRKVNPAAALEELEKIEKARMMERMSLKHQNSGKWAKSKAIMAKYDLEARQAMQEQLSKNKELTQKLQVASESEEEEGGTEDVEELLVPDVVNEVQMNADGPNPWMLRSCTSDTKEAATQEDPEQLPELEAHGVSESEGEERPVAEEEILLREFEERRSLRKRSELSQDAEPAGSQETKDSGSQEVLSELRVLSQKLKENHQSRKQKASSEGTIPQVQREEPAPEEEEPLLLQRPERVQTLEELEELGKEECFQNKELPRPVLEGQQSERTPNNRPDAPKEKKKKEQMIDLQNLLTTQSPSVKSLAVPTIEELEDEEERNHRQMIKEAFAGDDVIRDFLKEKREAVEASKPKDVDLTLPGWGEWGGVGLKPSAKKRRRFLIKAPEGPPRKDKNLPNVIINEKRNIHAAAHQVRVLPYPFTHHWQFERTIQTPIGSTWNTQRAFQKLTTPKVVTKPGHIINPIKAEDVGYRSSSRSDLSVIQRNPKRITTRHKKQLKKCSVD
binds	–	PPP1R10 (protein, UniProt Q96QC0 1-940) MGSGPIDPKELLKGLDSFLNRDGEVKSVDGISKIFSLMKEARKMVSRCTYLNILLQTRSPEILVKFIDVGGYKLLNNWLTYSKTTNNIPLLQQILLTLQHLPLTVDHLKQNNTAKLVKQLSKSSEDEELRKLASVLVSDWMAVIRSQSSTQPAEKDKKKRKDEGKSRTTLPERPLTEVKAETRAEEAPEKKREKPKSLRTTAPSHAKFRSTGLELETPSLVPVKKNASTVVVSDKYNLKPIPLKRQSNVAAPGDATPPAEKKYKPLNTTPNATKEIKVKIIPPQPMEGLGFLDALNSAPVPGIKIKKKKKVLSPTAAKPSPFEGKTSTEPSTAKPSSPEPAPPSEAMDADRPGTPVPPVEVPELMDTASLEPGALDAKPVESPGDPNQLTRKGRKRKSVTWPEEGKLREYFYFELDETERVNVNKIKDFGEAAKREILSDRHAFETARRLSHDNMEEKVPWVCPRPLVLPSPLVTPGSNSQERYIQAEREKGILQELFLNKESPHEPDPEPYEPIPPKLIPLDEECSMDETPYVETLEPGGSGGSPDGAGGSKLPPVLANLMGSMGAGKGPQGPGGGGINVQEILTSIMGSPNSHPSEELLKQPDYSDKIKQMLVPHGLLGPGPIANGFPPGGPGGPKGMQHFPPGPGGPMPGPHGGPGGPVGPRLLGPPPPPRGGDPFWDGPGDPMRGGPMRGGPGPGPGPYHRGRGGRGGNEPPPPPPPFRGARGGRSGGGPPNGRGGPGGGMVGGGGHRPHEGPGGGMGNSSGHRPHEGPGGGMGSGHRPHEGPGGSMGGGGGHRPHEGPGGGISGGSGHRPHEGPGGGMGAGGGHRPHEGPGGSMGGSGGHRPHEGPGHGGPHGHRPHDVPGHRGHDHRGPPPHEHRGHDGPGHGGGGHRGHDGGHSHGGDMSNRPVCRHFMMKGNCRYENNCAFYHPGVNGPPLP
binds	–	NOP16 (protein, UniProt Q9Y3C1 1-178) MPKAKGKTRRQKFGYSVNRKRLNRNARRKAAPRIECSHIRHAWDHAKSVRQNLAEMGLAVDPNRAVPLRKRKVKAMEVDIEERPKELVRKPYVLNDLEAEASLPEKKGNTLSRDLIDYVRYMVENHGEDYKAMARDEKNYYQDTPKQIRSKINVYKRFYPAEWQDFLDSLQKRKMEVE
binds	–	CEBPZ (protein, UniProt Q03701 1-1054) MAAVKEPLEFHAKRPWRPEEAVEDPDEEDEDNTSEAENGFSLEEVLRLGGTKQDYLMLATLDENEEVIDGGKKGAIDDLQQGELEAFIQNLNLAKYTKASLVEEDEPAEKENSSKKEVKIPKINNKNTAESQRTSVNKVKNKNRPEPHSDENGSTTPKVKKDKQNIFEFFERQTLLLRPGGKWYDLEYSNEYSLKPQPQDVVSKYKTLAQKLYQHEINLFKSKTNSQKGASSTWMKAIVSSGTLGDRMAAMILLIQDDAVHTLQFVETLVNLVKKKGSKQQCLMALDTFKELLITDLLPDNRKLRIFSQRPFDKLEQLSSGNKDSRDRRLILWYFEHQLKHLVAEFVQVLETLSHDTLVTTKTRALTVAHELLCNKPEEEKALLVQVVNKLGDPQNRIATKASHLLETLLCKHPNMKGVVSGEVERLLFRSNISSKAQYYAICFLNQMALSHEESELANKLITVYFCFFRTCVKKKDVESKMLSALLTGVNRAYPYSQTGDDKVREQIDTLFKVLHIVNFNTSVQALMLLFQVMNSQQTISDRYYTALYRKMLDPGLMTCSKQAMFLNLVYKSLKADIVLRRVKAFVKRLLQVTCQQMPPFICGALYLVSEILKAKPGLRSQLDDHPESDDEENFIDANDDEDMEKFTDADKETEIVKKLETEETVPETDVETKKPEVASWVHFDNLKGGKQLNKYDPFSRNPLFCGAENTSLWELKKLSVHFHPSVALFAKTILQGNYIQYSGDPLQDFTLMRFLDRFVYRNPKPHKGKENTDSVVMQPKRKHFIKDIRHLPVNSKEFLAKEESQIPVDEVFFHRYYKKVAVKEKQKRDADEESIEDVDDEEFEELIDTFEDDNCFSSGKDDMDFAGNVKKRTKGAKDNTLDEDSEGSDDELGNLDDDEVSLGSMDDEEFAEVDEDGGTFMDVLDDESESVPELEVHSKVSTKKSKRKGTDDFDFAGSFQGPRKKKRNLNDSSLFVSAEEFGHLLDENMGSKFDNIGMNAMANKDNASLKQLRWEAERDDWLHNRDAKSIIKKKKHFKKKRIKTTQKTKKQRK

Reference: PMC10742089
